Results reported in patent publication US9029574B2, “Bicyclic compound and use thereof for medical purposes” (Ono Pharmaceutical Co., Ltd., priority 2011, dated 2015).
Some results were stated once for a whole list of compounds, not compound by compound.

These compounds were tested on male rabbit (NewZealandWhite) (assay: Assessment of ocular stimulating property (Draize score) in rabbit). Details: ocular instillation 30 μL of 0.1% (w/v), observed 0 to 8 hours.
Assay type: in vivo

SMILES | classification by maximum of the Draize score
CC(C)OC(=O)CCC[C@H]1CC[C@@H]2[C@@H](/C=C/[C@@H](O)COc3cccc(Cl)c3)[C@H](O)C[C@@H]2OC1 [Example 16 (3), 2-Propanyl 4-{(3S,5aR,6R,7R,8aS)-6-[(1E,3R)-4-(3-chlorophenoxy)-3-hydroxy-1-buten-1-yl]-7-hydroxyoctahydro-2H-cyclopenta[b]oxepin-3-yl}butanoate] | non-stimulating substance (A Draize score of 0 or more and 5 or less was a non-stimulating substance)
CC(C)OC(=O)CCC[C@H]1CC[C@@H]2[C@@H](/C=C/[C@@H](O)COc3cc(F)ccc3F)[C@H](O)C[C@@H]2OC1 [Example 16 (25), 2-Propanyl 4-{(3S,5aR,6R,7R,8aS)-6-[(1E,3R)-4-(2,5-difluorophenoxy)-3-hydroxy-1-buten-1-yl]-7-hydroxyoctahydro-2H-cyclopenta[b]oxepin-3-yl}butanoate] | non-stimulating substance (A Draize score of 0 or more and 5 or less was a non-stimulating substance)
CCOC(=O)CCC[C@H]1CC[C@@H]2[C@@H](/C=C/[C@@H](O)COc3ccccc3)[C@H](O)C[C@@H]2OC1 [Example 16 (35), Ethyl 4-{(3S,5aR,6R,7R,8aS)-7-hydroxy-6-[(1E,3R)-3-hydroxy-4-phenoxy-1-buten-1-yl]octahydro-2H-cyclopenta[b]oxepin-3-yl}butanoate] | non-stimulating substance (A Draize score of 0 or more and 5 or less was a non-stimulating substance)
